Measured values taken from PMC3235137.

The chains behind the UniProt entries cited, without tags or fusion partners. Residues count along the entry.
UniProt Q8AYS8: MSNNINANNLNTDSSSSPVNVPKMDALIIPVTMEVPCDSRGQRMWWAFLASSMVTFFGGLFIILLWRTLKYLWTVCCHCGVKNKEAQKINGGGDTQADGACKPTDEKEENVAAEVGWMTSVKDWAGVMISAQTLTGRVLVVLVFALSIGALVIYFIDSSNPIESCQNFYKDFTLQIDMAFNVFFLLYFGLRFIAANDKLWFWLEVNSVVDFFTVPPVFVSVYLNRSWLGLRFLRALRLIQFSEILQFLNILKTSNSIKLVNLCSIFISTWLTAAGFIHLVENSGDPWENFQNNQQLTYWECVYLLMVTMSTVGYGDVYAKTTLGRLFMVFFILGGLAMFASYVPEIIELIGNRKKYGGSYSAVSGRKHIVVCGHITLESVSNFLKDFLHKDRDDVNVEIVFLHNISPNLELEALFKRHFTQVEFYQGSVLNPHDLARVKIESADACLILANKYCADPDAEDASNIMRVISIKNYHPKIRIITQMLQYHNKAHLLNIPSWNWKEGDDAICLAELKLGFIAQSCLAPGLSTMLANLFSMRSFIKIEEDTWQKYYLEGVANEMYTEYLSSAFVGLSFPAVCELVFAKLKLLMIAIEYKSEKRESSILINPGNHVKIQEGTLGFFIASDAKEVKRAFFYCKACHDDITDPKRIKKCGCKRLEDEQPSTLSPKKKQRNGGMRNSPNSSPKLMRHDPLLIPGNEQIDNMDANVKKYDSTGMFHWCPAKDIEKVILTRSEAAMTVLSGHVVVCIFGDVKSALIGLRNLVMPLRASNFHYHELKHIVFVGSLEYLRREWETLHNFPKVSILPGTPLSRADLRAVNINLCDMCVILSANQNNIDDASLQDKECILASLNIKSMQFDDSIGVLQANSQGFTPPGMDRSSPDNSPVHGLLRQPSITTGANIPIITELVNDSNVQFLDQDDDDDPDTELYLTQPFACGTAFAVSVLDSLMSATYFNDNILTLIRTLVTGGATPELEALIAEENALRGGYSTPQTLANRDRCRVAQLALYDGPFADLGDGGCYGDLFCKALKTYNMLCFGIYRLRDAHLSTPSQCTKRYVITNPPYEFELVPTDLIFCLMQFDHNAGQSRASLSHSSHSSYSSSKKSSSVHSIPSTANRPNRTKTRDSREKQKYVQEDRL
UniProt Q01406: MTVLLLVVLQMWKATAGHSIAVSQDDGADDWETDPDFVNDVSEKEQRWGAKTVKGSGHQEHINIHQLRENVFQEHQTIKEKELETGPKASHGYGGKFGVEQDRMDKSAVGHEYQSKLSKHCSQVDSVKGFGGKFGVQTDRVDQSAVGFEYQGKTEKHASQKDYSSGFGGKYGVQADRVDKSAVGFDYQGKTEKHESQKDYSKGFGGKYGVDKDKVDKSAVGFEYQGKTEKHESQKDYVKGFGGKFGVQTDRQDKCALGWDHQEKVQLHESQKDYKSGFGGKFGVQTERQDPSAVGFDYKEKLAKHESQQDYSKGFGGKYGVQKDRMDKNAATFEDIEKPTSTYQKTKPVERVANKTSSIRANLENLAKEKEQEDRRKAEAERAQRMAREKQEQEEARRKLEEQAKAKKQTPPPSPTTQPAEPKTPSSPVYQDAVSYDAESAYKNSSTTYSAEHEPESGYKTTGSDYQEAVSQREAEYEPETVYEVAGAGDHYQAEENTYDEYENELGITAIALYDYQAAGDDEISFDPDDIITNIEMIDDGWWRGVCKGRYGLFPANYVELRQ
UniProt Q90593, residues 17-652: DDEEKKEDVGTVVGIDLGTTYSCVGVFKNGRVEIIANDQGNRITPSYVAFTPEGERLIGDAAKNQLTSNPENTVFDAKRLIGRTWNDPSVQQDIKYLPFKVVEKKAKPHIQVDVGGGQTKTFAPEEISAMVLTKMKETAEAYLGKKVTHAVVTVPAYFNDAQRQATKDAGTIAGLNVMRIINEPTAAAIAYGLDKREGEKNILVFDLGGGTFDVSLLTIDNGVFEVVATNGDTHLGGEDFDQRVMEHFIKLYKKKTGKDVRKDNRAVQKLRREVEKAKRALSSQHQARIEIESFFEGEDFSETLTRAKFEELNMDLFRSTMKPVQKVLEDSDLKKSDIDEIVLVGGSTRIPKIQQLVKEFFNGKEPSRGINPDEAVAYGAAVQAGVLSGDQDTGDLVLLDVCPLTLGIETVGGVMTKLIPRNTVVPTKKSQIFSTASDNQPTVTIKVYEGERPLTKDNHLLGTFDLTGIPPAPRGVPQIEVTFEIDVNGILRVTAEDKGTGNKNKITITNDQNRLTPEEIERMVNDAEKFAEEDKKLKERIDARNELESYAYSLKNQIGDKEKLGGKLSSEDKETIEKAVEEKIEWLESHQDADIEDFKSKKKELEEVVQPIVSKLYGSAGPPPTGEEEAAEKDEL
UniProt P13648: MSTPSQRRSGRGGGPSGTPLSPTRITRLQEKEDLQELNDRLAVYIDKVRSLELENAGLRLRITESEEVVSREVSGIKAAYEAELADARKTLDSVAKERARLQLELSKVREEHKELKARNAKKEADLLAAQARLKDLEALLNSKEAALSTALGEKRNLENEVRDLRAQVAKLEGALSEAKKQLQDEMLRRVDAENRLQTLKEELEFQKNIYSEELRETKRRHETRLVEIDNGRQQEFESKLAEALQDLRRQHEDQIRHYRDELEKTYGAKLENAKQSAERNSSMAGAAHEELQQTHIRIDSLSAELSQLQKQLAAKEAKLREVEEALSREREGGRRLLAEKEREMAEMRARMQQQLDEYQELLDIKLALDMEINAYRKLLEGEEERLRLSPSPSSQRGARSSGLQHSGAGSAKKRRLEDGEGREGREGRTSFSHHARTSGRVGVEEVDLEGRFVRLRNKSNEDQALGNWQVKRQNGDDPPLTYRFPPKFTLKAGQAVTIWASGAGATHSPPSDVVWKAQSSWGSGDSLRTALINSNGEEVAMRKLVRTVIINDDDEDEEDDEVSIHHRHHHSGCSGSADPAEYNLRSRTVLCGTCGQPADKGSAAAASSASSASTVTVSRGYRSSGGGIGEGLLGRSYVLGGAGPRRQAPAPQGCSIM
UniProt P80566: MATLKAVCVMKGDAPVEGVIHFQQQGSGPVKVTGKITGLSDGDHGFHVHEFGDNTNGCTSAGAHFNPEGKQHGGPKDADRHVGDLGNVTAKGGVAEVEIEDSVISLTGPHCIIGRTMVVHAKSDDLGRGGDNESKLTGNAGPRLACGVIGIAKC
UniProt P60878: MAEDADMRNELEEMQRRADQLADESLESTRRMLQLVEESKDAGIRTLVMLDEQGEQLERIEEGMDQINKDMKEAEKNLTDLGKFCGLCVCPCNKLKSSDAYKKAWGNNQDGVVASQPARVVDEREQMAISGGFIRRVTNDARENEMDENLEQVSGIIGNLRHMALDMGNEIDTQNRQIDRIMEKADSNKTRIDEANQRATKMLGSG
UniProt O57391: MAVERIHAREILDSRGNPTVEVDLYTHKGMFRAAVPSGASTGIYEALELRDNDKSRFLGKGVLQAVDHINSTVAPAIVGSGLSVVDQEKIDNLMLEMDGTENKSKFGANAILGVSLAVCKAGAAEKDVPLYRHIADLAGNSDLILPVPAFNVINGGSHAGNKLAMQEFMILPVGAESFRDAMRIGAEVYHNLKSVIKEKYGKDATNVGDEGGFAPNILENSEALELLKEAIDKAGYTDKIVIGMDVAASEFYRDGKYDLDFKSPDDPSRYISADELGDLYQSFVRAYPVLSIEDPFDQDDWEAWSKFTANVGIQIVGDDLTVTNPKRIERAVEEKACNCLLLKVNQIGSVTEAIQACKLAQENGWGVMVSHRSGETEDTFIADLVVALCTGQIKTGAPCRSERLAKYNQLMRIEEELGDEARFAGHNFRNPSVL

Each substance was assayed against large-conductance Ca2+-activated K+ (BK) channel α-subunit (chicken (endogenous in chick cochlea)) (UniProt Q8AYS8) (assay: affinity purification with mass spectrometry; polyclonal anti-BKα (Chemicon) immunocomplex capture on protein G beads from membrane/cytoskeletal (1% ASB-14) and cytoplasmic fractions of chick cochlea; 2-D gel, LC-MS/MS; controls: irrelevant antibody, unbound beads).

binding, binds:
cortactin (from UniProt Q01406 1-563), glucose-related protein 78 (from UniProt Q90593 17-652), lamin A (from UniProt P13648 1-657), superoxide dismutase 1 (from UniProt P80566 1-154), synaptosomal-associated protein 25 (from UniProt P60878 1-206), γ-enolase (from UniProt O57391 1-434)

These are yes or no findings as the source states them, for the method shown. In cells and extracts the contact can be indirect. A yes stands for co-enrichment or nearness to the bait. Other partners may have been found.
